Results are given in words; binding and its absence hold for the method and conditions named. Some binding calls cover weakened binding; strength is not graded here. Where a sequence is shown, tags or fusion partners need not be part of it.
Target: UBC-DHF40-Linker14-HA
Assay: self-assembly in cultured mouse hippocampal neurons; anti-HA immunofluorescence, confocal

binding: binds
B1: UBC-DHF40-Linker14-HA (protein)
chain: MSSEKEELRERLVKICVELAKLKGDDTLKAAEAAEEAFRLVVLAAMLAGIDSSEVLELAIRLIKTCVVLAAMEGYDISEACRAAAEAFTRVAMAALRAGITSSLVLKAAIELIKECVLNAAVEGYDISEACRAAAEAFKRVAEAAKRAGITSLETLLRAIEEIRKRVEEAQREGNDISEACRQAAEEFRKKAEELKRRGDVGGSGGTGGSGGTGYPYDVPDYA

— patent US20230250139A1 (MIT, published 2023)
